Source: doi:10.1101/2023.11.29.568318
These are yes or no findings as the source states them, for the method shown. In cells and extracts the contact can be indirect. Some results given as binding are weak or reduced against the parent protein; the word gives no strength.

Chains of the proteins cited; added tags and fusions are not shown. Residues count along the entry.
UniProt P05067, residues 672-713: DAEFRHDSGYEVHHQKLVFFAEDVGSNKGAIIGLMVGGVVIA
UniProt P51910, residues 21-189: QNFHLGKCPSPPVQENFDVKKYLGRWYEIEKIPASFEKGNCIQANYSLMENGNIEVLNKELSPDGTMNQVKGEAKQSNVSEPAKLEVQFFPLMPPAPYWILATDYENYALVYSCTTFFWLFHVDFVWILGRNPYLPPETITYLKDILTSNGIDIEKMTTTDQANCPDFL
UniProt Q8R066, residues 17-326: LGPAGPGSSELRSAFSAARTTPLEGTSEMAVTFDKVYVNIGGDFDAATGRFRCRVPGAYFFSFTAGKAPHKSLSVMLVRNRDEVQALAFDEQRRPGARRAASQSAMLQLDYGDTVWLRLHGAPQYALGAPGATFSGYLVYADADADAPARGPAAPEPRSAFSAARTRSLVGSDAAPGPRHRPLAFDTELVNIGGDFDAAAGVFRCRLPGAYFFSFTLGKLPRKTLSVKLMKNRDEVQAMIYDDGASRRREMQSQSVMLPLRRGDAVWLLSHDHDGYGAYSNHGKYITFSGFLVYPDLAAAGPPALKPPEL
UniProt Q9R118, residues 23-480: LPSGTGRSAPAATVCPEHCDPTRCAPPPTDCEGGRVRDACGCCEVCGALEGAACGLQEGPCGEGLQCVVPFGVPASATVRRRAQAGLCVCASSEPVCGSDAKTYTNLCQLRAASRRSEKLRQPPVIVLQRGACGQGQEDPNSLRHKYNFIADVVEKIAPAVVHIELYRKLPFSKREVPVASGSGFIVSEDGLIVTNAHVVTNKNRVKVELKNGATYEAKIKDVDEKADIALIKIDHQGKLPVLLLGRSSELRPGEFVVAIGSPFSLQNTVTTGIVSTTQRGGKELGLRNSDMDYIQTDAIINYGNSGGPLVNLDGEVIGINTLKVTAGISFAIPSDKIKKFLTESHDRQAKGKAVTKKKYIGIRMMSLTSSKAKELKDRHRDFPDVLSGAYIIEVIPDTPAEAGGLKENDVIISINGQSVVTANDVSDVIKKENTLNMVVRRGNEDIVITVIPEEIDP

Biological target: amyloid beta 1-42 fibrils (human) (UniProt P05067)
Assay: co-sedimentation

Substance | binding
ApoD (from UniProt P51910 21-189) | binds
C1qTnf4 (from UniProt Q8R066 17-326) | binds
Htra1 (from UniProt Q9R118 23-480) | binds
